Results: PubChem BioAssay AID1347426 (Functional Genomics Laboratory (NCATS/FGL), 2020)
The campaign covered roughly 31,000 sequences. About 1,400 (4.5%) were called active.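 Rule for the calls: active = median seed-adjusted z-score above 1 or below -1; inactive = the rest.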 The list shows a part of the results.

Test: Novel Modifiers of Survival Motor Neuron (SMN) Protein: Gene Identification via Genome-wide siRNA Screen;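 note: luminescence tracks full-length SMN protein made from the SMN2 reporter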
Settings: HEK293T SMN2-luciferase reporter, siRNA knockdown, 72 h; actives lie on both sides
Procedure, shortened: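 siRNA screen, 10418 genes ×3 siRNAs; 1 pmol/well, lipid reverse transfection into HEK293T SMN2-luc reporter line. 72 h, 37 °C, 5% CO2; ONE-Glo readout. Data: neg-ctrl normalized, log10, MAD; hit = MAD >1.0 or < -1.0.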

Sequence | median seed-adjusted z-score
CCCUUUGAGUGUCCCAAAUTT against ZBTB48 | inactive: 0.0461
GGAGCAGUCGAAAACCCGATT against ARFRP1 | inactive: -0.329
CAGCGGAUGUGGAACCGAATT against NPR1 | inactive: -0.823
GAACAGUUCUUCGAAAACUTT against ZSCAN4 | inactive: 0.617
UGGACCUGUCUGAUACUAATT against RDH11 | inactive: -0.241
GGAAGAAAUUUGUCCGGAATT against ZNF510 | inactive: 0.28
CGAACAACAUGCAAAGGUUTT against CDR2 | inactive: -0.37
CAACAAGGAUUAUGCAGAUTT against COG2 | inactive: 0.791
UGCUCUUCUUCGAAAACUATT against SCN1B | inactive: 0.331
GAGUCAGAGGGUUUGAUAATT against GALM | inactive: -0.111
GACUGAAGGUAAGAUUUCATT against SERPINB8 | inactive: 0.371
GAACCUCUUGGAGAGUGAATT against TRIM47 | inactive: 0.707
CGCUGAAUGAAGAGUCUUATT against YWHAB | inactive: 0.579
AUCUUCACGUCGAAGUGAATT against BTN3A2 | inactive: 0.402
GGCUAUAACAAAAGGAUCATT against RBM44 | inactive: -0.00558
GCACGUGGUUGAAAUCGAATT against FREM2 | inactive: 0.143
GAAUCUUCAAUCAAUCAUATT against ABI2 | inactive: -0.0392
CCUCCGAUGUGAAUACUGATT against SCMH1 | inactive: -0.305
GGUUUUAGACCACACUAAATT against MSH3 | inactive: 0.428
CAGCUAUAAUCGUUUAUGATT against RAB22A | inactive: 0.321
GCGAGAGUCUGCAUAGGUATT against GRIN2D | inactive: -0.135
GAUAUAUCCGAAACCAGUATT against PDGFD | inactive: 0.366
GGAUCACCACACUUCCCAATT against DDX23 | inactive: -0.468
GGGCGAUGUCCAUCCACAATT against PIF1 | inactive: -0.0455
GGAUCUACCUACUCCCUCATT against ANGPTL7 | inactive: 0
GGAAAGCGACUGAACUUCATT against SLAMF6 | inactive: 0.0115
GGAUAACUGCGCUAGUGUUTT against EBI2 | inactive: -0.312

Sequence | median seed-adjusted z-score
GCGCAGCGCAGAAAAGAGATT against SURF6 | inactive: 0.122
CAAUACGAUUGGGACAUUATT against UXS1 | inactive: 0.25
GAGCAAAGAUUACCUAUUATT against LMAN1 | inactive: -0.118
CAAAGGCAUUUACCUGAAATT against GPR133 | inactive: -0.681
GCAACUCCUUCCUCGCUAATT against RBM17 | inactive: 0
CGCAAAAUGGAAUAAGCUATT against DUSP8 | inactive: -0.0326
GUACCAGUACUAUUCCAAUTT against PLA2G2A | inactive: 0.809
CAGCCUCUUUGUAAAGAUUTT against ATP6V0B | inactive: 0
GGAUUCACUCCACUACGAATT against DHH | inactive: 0
GCAACUCACGGAUGAUUGATT against WBSCR22 | inactive: -0.21
UGAAAUUCCGCAAACACUATT against RBPMS | inactive: 0
GAGCACCUUUGUUCACGUUTT against HTR2B | inactive: -0.325
GCGGUAUGAUUGAUAAUCUTT against SH3BP4 | inactive: -0.0622
GCUUGUAGCUCUUAAGGUUTT against PPP2CA | inactive: 0.731
GCAUGUCCGAUUUCAACUATT against CPZ | inactive: -0.0748
GCCUCUCUUGACUACAGAATT against ARL10 | inactive: -0.455
GCAGCUCGACUCUCACGUATT against SNAPIN | inactive: -0.132
GCUACGACCCAAAUCGAUATT against GNL1 | inactive: 0.154
CAGUAUAGGCUUCUAGUAATT against MTIF2 | inactive: 0.236
CGUGAACUGUAACAGCAUUTT against PGC | inactive: 0.884
GGAGCAUCACAGAUGUAUATT against CCR8 | inactive: -0.206
GCAAUGCCCUUUUCACCGATT against SERPINA5 | active: -1.01
CGAACGACAUGUUCUUGUUTT against CST7 | inactive: 0.303
GCAUCAACCUCCAAAUCGATT against SFRS2B | inactive: -0.272
GGAAGAGUUGGACACCUUATT against ANGPT1 | inactive: 0.289
GCCUGCCUUUUGUCCUUGUTT against HTR6 | inactive: -0.463
CGGAAUAAUUCCAUCCAAATT against STX16 | inactive: -0.569

Fetched one by one from the list above, 2 records:
Sequence | median seed-adjusted z-score
CGCUGAAUGAAGAGUCUUATT against YWHAB | inactive: 0.579
CAGUAUAGGCUUCUAGUAATT against MTIF2 | inactive: 0.236
